PubChem BioAssay AID652259 | Drosophila RNAi Screening Center | 2013
Purpose: 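Knock-downs that push a Wingless-driven reporter up or down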 (primary screen). Cell system: Drosophila clone 8 imaginal disc epithelial cells. Knock-down reagent: long dsRNA against Drosophila genes. Conditions: pathway stimulated by co-transfected Wingless expression plasmid. Detection: 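Firefly luciferase from a tcf-site Wingless reporter, measured alongside co-transfected Renilla luciferase that tracks transfection; pathway stimulated by a Wingless plasmid; the firefly-to-Renilla ratio is not deposited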. Scale: firefly reporter light: higher = more Wg reporter light, before normalisation; Renilla control light: higher = more transfected or surviving cells. Active means: 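Strong candidates differ from their plate mean by at least two out of four per-plate statistical tests; weak candidates meet just one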. Calls: active = candidate regulator (raises or lowers reporter); inactive = not a candidate.
In all, the deposit lists about 22,000 reagents; below is an unselected part of those with a known target gene and a result. Over the whole deposit, 233 (1.1%) are marked active. 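Light values are raw, unnormalised plate reads; the ratio scores behind the reporter calls were not deposited.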 Names joined by + are all predicted targets of the reagent. Reagent sequences are not shown. The record does not give: the amount of reagent, the time to read-out, the dose of the treatment.

| gene | dsRNA | reporter change call, replicate 1 | firefly reporter light, replicate 1 | firefly reporter light, replicate 2 | Renilla control light, replicate 1 | Renilla control light, replicate 2 | outcome |
| --- | --- | --- | --- | --- | --- | --- | --- |
| Targ2 (Terminal ADP-ribose protein glycohydrolase 2) | DRSC21970 | – | 6.51e5 | 7.77e5 | 3.04e5 | 3.13e5 | inactive |
| CG43075 | DRSC19074 | – | 3863 | – | 1586 | – | inactive |
| rib (ribbon) | DRSC07021 | – | 7536 | – | 2976 | – | inactive |
| Cypl (Cyclophilin-like) | DRSC08362 | – | 6993 | – | 4449 | – | inactive |
| CG14342 | DRSC00372 | – | 2595 | 7036 | 896 | 2649 | inactive |
| ppk31 (pickpocket 31) | DRSC13811 | – | 3719 | – | 1541 | – | inactive |
| hpo (hippo) | DRSC06065 | – | 13339 | – | 3932 | – | inactive |
| CG12231 | DRSC19445 | – | 14185 | – | 8388 | – | inactive |
| CG32391 | DRSC08865 | – | 3472 | – | 1698 | – | inactive |
| IntS9 (Integrator 9) | DRSC10493 | – | 6067 | – | 1846 | – | inactive |
| SP2353 | DRSC07545 | Wg reporter activity raised | 13568 | – | 1202 | – | active |
| Rbm13 (RNA-binding motif protein 13) | DRSC17749 | – | 20160 | – | 13232 | – | inactive |
| CG11672 | DRSC14344 | – | 13362 | – | 3761 | – | inactive |
| CG9360 | DRSC20180 | – | 12877 | – | 7946 | – | inactive |
| Phae1 (Phaedra 1) | DRSC02554 | – | 3360 | 10825 | 1800 | 4436 | inactive |
| CG13065 | DRSC09948 | – | 8421 | – | 3211 | – | inactive |
| CG9902 | DRSC20212 | – | 17275 | – | 7665 | – | inactive |
| CG5276 | DRSC15759 | – | 13570 | – | 2119 | – | inactive |
| Sec8 (Secretory 8) | DRSC12300 | – | 5668 | – | 2554 | – | inactive |
| CG32820 + CG17450 + CG32819 | DRSC21803 | – | 5.77e5 | 7.26e5 | 3.69e5 | 2.64e5 | inactive |
| CG32820 + CG17450 + CG32819 | DRSC22812 | – | 7.53e5 | 8.87e5 | 3.65e5 | 5.01e5 | inactive |
| Tango2 (Transport and Golgi organization 2) | DRSC19394 | – | 3155 | 5592 | 1074 | 2260 | inactive |
| Tango2 (Transport and Golgi organization 2) | DRSC21526 | – | 5.83e5 | 5.30e5 | 2.37e5 | 1.81e5 | inactive |
| Hsp68 (Heat shock protein 68) | DRSC16712 | – | 18534 | – | 16657 | – | inactive |
| ASPP | DRSC04305 | – | 2290 | 9794 | 250 | 1392 | inactive |
| sNPF (short neuropeptide F precursor) | DRSC02309 | – | 1971 | 7376 | 640 | 2380 | inactive |
| Agpat3 (1-Acylglycerol-3-phosphate O-acyltransferase 3) | DRSC10445 | – | 4198 | – | 1568 | – | inactive |
| CG12288 | DRSC02155 | – | 1827 | 6084 | 1019 | 3447 | inactive |
| CG4324 | DRSC04462 | – | 2758 | 6868 | 469 | 2076 | inactive |
| Vha13 (Vacuolar H[+] ATPase 13kD subunit) | DRSC16895 | – | 23554 | – | 3893 | – | inactive |
| CG43106 | DRSC04279 | – | 3064 | 7317 | 605 | 3005 | inactive |
| CG33468 | DRSC22940 | – | 5.22e5 | 5.75e5 | 2.34e5 | 1.96e5 | inactive |
| Idi (Isopentenyl-diphosphate delta isomerase) | DRSC15918 | – | 3500 | 5206 | 1427 | 2000 | inactive |
| CG9682 | DRSC16536 | – | 2244 | 7079 | 1056 | 2236 | inactive |
| Ppox (Protoporphyrinogen oxidase) | DRSC17033 | – | 24320 | – | 16256 | – | inactive |
| Vha36-1 (Vacuolar H[+] ATPase 36kD subunit 1) | DRSC07098 | – | 23730 | – | 6498 | – | inactive |
| Mob4 (MOB kinase activator 4) | DRSC04993 | – | 9674 | – | 1907 | – | inactive |
| Dus4 (Dihydrouridine synthase 4) | DRSC02066 | – | 10147 | – | 2538 | – | inactive |
| CG4213 | DRSC00641 | – | 2727 | 8218 | 1010 | 2886 | inactive |
| Fancm (Fanconi anemia group M helicase) | DRSC16348 | – | 3597 | 5398 | 1394 | 2442 | inactive |
| CG31538 | DRSC12059 | – | 4512 | – | 1386 | – | inactive |
| CG4294 | DRSC04460 | – | 4524 | – | 1158 | – | inactive |
| CG30458 | DRSC06660 | – | 10536 | 6.24e5 | 4875 | 1.98e5 | inactive |
| mRpL33 (mitochondrial ribosomal protein L33) | DRSC18319 | – | 17368 | – | 7011 | – | inactive |
| Tsp68C (Tetraspanin 68C) | DRSC09295 | – | 2016 | – | 371 | – | inactive |
| cato (cousin of atonal) | DRSC07589 | – | 5686 | – | 2313 | – | inactive |
| ss (spineless) | DRSC17069 | – | 15306 | – | 3849 | – | inactive |
| CG12560 | DRSC02174 | – | 2369 | 7442 | 792 | 3565 | inactive |
| CG17683 | DRSC21160 | – | 10032 | – | 6986 | – | inactive |
| CG3309 | DRSC18301 | – | 9719 | – | 7380 | – | inactive |
| CG12716 | DRSC19493 | – | 25312 | – | 14784 | – | inactive |
| CG11498 | DRSC14315 | – | 5641 | – | 1908 | – | inactive |
| Ir48a (Ionotropic receptor 48a) | DRSC05301 | – | 15449 | – | 13220 | – | inactive |
| RpS16 (Ribosomal protein S16) | DRSC04442 | – | 2992 | 6106 | 625 | 1600 | inactive |
| CG14314 | DRSC14793 | – | 10220 | – | 1232 | – | inactive |
| Nepl17 (Neprilysin-like 17) | DRSC14880 | – | 7808 | – | 4644 | – | inactive |
| CG11444 | DRSC17784 | – | 2823 | 5664 | 1111 | 1496 | inactive |
| betaGlu (beta glucuronidase) | DRSC15419 | – | 2541 | 4384 | 789 | 1378 | inactive |
| CG4752 | DRSC04486 | – | 3291 | 9810 | 1408 | 4696 | inactive |
| tko (technical knockout) | DRSC18844 | – | 14246 | – | 12528 | – | inactive |
| Vml (Vitelline membrane-like) | DRSC17695 | – | 4405 | – | 1430 | – | inactive |
| Vml (Vitelline membrane-like) | DRSC18529 | – | 33512 | – | 19292 | – | inactive |
| CG14932 | DRSC02414 | – | 3328 | 5712 | 1228 | 2756 | inactive |
| Strica (Ser/Thr-rich caspase) | DRSC04920 | – | 3416 | 9281 | 1160 | 3080 | inactive |
| Or85b (Odorant receptor 85b) | DRSC16765 | – | 15089 | – | 4243 | – | inactive |
| CG10395 | DRSC04840 | – | 15344 | – | 3175 | – | inactive |
| Cyp4d8 (Cytochrome P450 4d8) | DRSC11131 | – | 4192 | – | 2074 | – | inactive |
| unc-4 | DRSC20381 | – | 25905 | – | 10186 | – | inactive |
| unc-4 | DRSC22074 | – | 8.01e5 | 8.08e5 | 3.39e5 | 4.03e5 | inactive |
| CG42299 + CG42300 | DRSC19680 | – | 20724 | – | 7370 | – | inactive |
| CG42299 + CG42300 | DRSC19815 | – | 16954 | – | 8588 | – | inactive |
| IRSp53 (Insulin receptor substrate 53 kDa) | DRSC10891 | – | 7875 | – | 3077 | – | inactive |
| CG31419 | DRSC15771 | – | 12865 | – | 2243 | – | inactive |

Quoted from above (7 entries):
| gene | dsRNA | reporter change call, replicate 1 | firefly reporter light, replicate 1 | firefly reporter light, replicate 2 | Renilla control light, replicate 1 | Renilla control light, replicate 2 | outcome |
| --- | --- | --- | --- | --- | --- | --- | --- |
| Sec8 (Secretory 8) | DRSC12300 | – | 5668 | – | 2554 | – | inactive |
| CG32820 + CG17450 + CG32819 | DRSC21803 | – | 5.77e5 | 7.26e5 | 3.69e5 | 2.64e5 | inactive |
| CG32820 + CG17450 + CG32819 | DRSC22812 | – | 7.53e5 | 8.87e5 | 3.65e5 | 5.01e5 | inactive |
| Tango2 (Transport and Golgi organization 2) | DRSC19394 | – | 3155 | 5592 | 1074 | 2260 | inactive |
| Tango2 (Transport and Golgi organization 2) | DRSC21526 | – | 5.83e5 | 5.30e5 | 2.37e5 | 1.81e5 | inactive |
| Hsp68 (Heat shock protein 68) | DRSC16712 | – | 18534 | – | 16657 | – | inactive |
| ASPP | DRSC04305 | – | 2290 | 9794 | 250 | 1392 | inactive |
